# Measurements taken from publication PMC7862700.
# The list shows a part of the results, in another mix than the full data. For some of these results: At the low end of the ranking, values are background and their order means little.
# Columns and labels:
# Experiment in all cases: DAPPL (digital affinity profiling via proximity ligation, sequencing)
# Conditions in all cases: 10 mM Tris-HCl pH 7.5, 50 mM NaCl, 1 mM DTT, 4% glycerol, room temperature, 30 min; GST-TFs on glutathione beads, 16-mer random dsDNA library, 0.1% …; high values mean tight binding; double strand, one strand shown; scale: fold enrichment (6-mer frequency, TF over GST control)
# [1] = target: T1, ELK3 (UniProt P41970)
# T1 sequence: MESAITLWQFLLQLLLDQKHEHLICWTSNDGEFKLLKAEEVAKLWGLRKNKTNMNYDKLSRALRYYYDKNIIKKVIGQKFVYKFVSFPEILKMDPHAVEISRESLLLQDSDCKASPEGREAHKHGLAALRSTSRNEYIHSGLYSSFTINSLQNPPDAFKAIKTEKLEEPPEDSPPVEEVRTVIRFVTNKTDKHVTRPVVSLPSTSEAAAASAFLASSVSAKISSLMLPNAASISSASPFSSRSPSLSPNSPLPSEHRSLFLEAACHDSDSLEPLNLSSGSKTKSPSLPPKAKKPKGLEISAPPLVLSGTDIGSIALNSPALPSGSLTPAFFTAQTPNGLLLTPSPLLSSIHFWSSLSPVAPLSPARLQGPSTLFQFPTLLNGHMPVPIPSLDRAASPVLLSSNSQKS
# [2] = target: T2, SPIC (UniProt Q8N5J4)
# T2 sequence: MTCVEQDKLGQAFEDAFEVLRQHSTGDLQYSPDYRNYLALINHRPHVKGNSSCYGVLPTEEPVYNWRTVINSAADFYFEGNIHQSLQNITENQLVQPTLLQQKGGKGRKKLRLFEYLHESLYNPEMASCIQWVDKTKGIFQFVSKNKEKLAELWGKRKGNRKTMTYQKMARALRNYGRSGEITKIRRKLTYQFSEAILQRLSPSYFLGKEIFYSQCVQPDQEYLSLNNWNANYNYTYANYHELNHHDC
# [3] = target: T3, ETV3 (UniProt P41162-2)
# T3 sequence: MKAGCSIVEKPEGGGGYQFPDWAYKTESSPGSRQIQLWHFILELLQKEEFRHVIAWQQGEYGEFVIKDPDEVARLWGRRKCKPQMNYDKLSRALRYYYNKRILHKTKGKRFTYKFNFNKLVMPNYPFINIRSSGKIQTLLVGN
# [4] = target: T4, ETS2 (UniProt P15036)
# T4 sequence: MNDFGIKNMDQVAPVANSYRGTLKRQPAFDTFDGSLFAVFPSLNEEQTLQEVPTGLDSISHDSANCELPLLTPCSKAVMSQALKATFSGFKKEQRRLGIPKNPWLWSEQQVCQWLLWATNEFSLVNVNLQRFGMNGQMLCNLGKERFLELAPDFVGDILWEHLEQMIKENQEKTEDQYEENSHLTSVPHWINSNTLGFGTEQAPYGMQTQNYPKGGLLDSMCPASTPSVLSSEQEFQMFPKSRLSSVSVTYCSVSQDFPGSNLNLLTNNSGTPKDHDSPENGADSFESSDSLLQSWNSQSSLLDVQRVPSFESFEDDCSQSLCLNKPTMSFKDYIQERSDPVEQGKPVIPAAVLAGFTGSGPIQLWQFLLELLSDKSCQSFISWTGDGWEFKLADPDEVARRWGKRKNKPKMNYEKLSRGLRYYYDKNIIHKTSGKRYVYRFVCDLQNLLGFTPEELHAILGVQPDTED
Sequence,binding signal [1],binding signal [2],binding signal [3],binding signal [4]
TTATAG,1.03,1.38,0.985,
CCCCAT,,1.41,1.31,
TAAGCT,1.12,1.24,1.2,
CGCCTT,,1.47,1.45,
CCTAGA,0.984,0.894,0.979,
TATTCA,,1.47,1.23,
TACATT,,0.99,1.2,
AAGCGA,1.07,0.877,,1.05
AGACCT,,0.977,0.954,
TCTACG,,1.3,1.32,
CGAGTT,1.14,0.883,,1.07
AAGTTT,1.44,1.29,1.53,
CCCGTT,1.18,1.07,,1.1
AACAGC,,1.05,1.13,
ATGATT,,1.17,1.3,
ATGAGC,1.19,1.29,,1.26
AACCAT,,0.999,1.16,
ATAGAA,1.13,1.03,,1.07
TTCCTC,,2.72,2.38,
CTTGGG,,1.31,1.26,
CACTCT,,1.22,1.43,
TCTGTC,,1.3,1.05,
GATGAC,,1.15,1.56,
GAAATA,1.5,1.43,1.54,
CGGCTT,1.12,1.13,1.15,
TTTCGA,,1.18,1.41,
ATCCTG,1.5,1.19,,1.56
CGCCTC,1.46,1.33,,
TACACG,1.19,0.957,,

# 2 consecutive entries from above, quoted:
Sequence,binding signal [1],binding signal [2],binding signal [3],binding signal [4]
AAGCGA,1.07,0.877,,1.05
AGACCT,,0.977,0.954,
